Data as given in the supplement of paper PMC5949888.
Most values lie at the floor of the assay. Slopes are relative: functional sequences can read slightly below zero.

Tested on: Saccharomyces cerevisiae PS128 hsf1 delta, HSF1(1-493) fusion
Assay: growth estimate (transactivation domain function in HSF1 fusion, heat-shock survival) (a.u. (slope of normalised read count over time)); higher = stronger growth at 37°C, i.e. more transactivation activity
Conditions: library: random library

Substance | growth estimate
AEYFVRIGRSYEESVP | < -0.25
RERCMKATARRLWHRQSGVG | < -0.25
NEHFKTFTRGLRMHKEVDPI | < -0.25
KLFLECSSDNTSCRRLLVDA | < -0.25
TEAPWLSIRFTECDSGRR | < -0.25
ATRPGHFRQKWAPGGGEQSH | < -0.25
EVRNGV | < -0.25
GSMQERVVARLDTLWLDW | < -0.25
EMRFSCVPNKRACITGN | < -0.25
GRIIPISDAERWL | < -0.25
MSTGLGCFVAASGGLYGGPN | < -0.25
RGLATHFTDSTHGSCRQ | -0.245
RSKREDTRKAR | -0.236
RCQHIKEGRMGRLIRESDMF | < -0.25
RGGSSFSAETVTPLGYGRLT | < -0.25
TILGVKALFVSRR | < -0.25
DSSTRGRDRSLSQAVVFAPS | -0.245
WSTWIIASSRNGQVYHVIIE | < -0.25
IVLNPGN | < -0.25
ACQYAWMRTQTRESQETGHP | < -0.25
GDGAGPVLSESWSNNEKSLV | < -0.25
SGRCNMWDRGTDSPRGVVVI | < -0.25
RPA | < -0.25

For convenience, part of the list above:
Substance | growth estimate
MSTGLGCFVAASGGLYGGPN | < -0.25
RGLATHFTDSTHGSCRQ | -0.245
RSKREDTRKAR | -0.236
RCQHIKEGRMGRLIRESDMF | < -0.25

Following part:

Substance | growth estimate
GNLNPE | -0.246
CRA | < -0.25
HPNYLGGDGGL | < -0.25
FLPARSQNGSYTASKIWGRR | < -0.25
SDVTMPGIVHGHSRRTG | < -0.25
DCRNNCCGGRMLVMLCARDL | < -0.25
RCTGSGQVWG | < -0.25
IRSTQPPN | < -0.25
PFRCQ | < -0.25
AHEVAVAFRYSGRLPG | < -0.25
VVFLMVFRVSCYLSPRSRTF | < -0.25
QLTHLGETTSA | < -0.25
VRVVTARELYTTQKNCRVRN | < -0.25
FFRSMVSP | -0.0082
SSG | < -0.25
SLSPAIRNPWVGLGWSRRTL | < -0.25
GGAKQKGTVC | < -0.25
WYVHAIFVAARKSAKRAQKT | < -0.25
LLVAIREGTLCFEVGWSVAK | < -0.25
SGDGGCPVSVMCNG | < -0.25
PASPP | -0.243
IVTFPSDAGQGNRPWT | < -0.25
PPVPTLLYTAR | < -0.25

Given with tabs: part of the list above.
Substance	growth estimate
CRA	< -0.25
HPNYLGGDGGL	< -0.25
FLPARSQNGSYTASKIWGRR	< -0.25

(further entries)

Substance | growth estimate
LHRKGMMMRQS | < -0.25
GPSQLRGRGSCRDFTWWDAS | < -0.25
GCRYNGTREH | < -0.25
EVLCGRCRTYRRDVKLLFSI | < -0.25
SKWREGA | < -0.25
VCGREESPSGRRT | < -0.25
QGTGSHLGLFRLVLKAVGLE | < -0.25
HKY | < -0.25
VGRGEFHTLGDRTGSFLPSS | < -0.25
IMQVLPFGGSYVQESSETRR | < -0.25
PGAHILIG | < -0.25
EFHMN | < -0.25
VFIKGTWS | -0.25
GLISLISYLSILPHPREHVA | < -0.25
VANGSVHREQTFWCVHHG | < -0.25
RDWFGYRML | < -0.25
LIEQYTRQIPPGNGSRAQRV | < -0.25
CLVRLKNRHGR | < -0.25
GKYA | < -0.25
SEPHSELLDILSMQIED | < -0.25
SGSRERSR | < -0.25
TIQGVIVG | < -0.25
TRSIDAWTLL | < -0.25

Substance | growth estimate
TFD | < -0.25
DNGHYGANARVLGSSQETPG | < -0.25
QGRAWS | < -0.25
HRRTFAGKCKLCRAGKE | < -0.25
CFLPLMTGRFELSLLLDALE | < -0.25
LVLIPSTT | < -0.25
GLCSRSENDWGRPHYVGRCW | < -0.25
CTLEDRVGFRNASMSGTPSL | < -0.25
LVSSLELAISDSIRKQRIPA | < -0.25
DWAF | < -0.25
GPTMRFSLLPLRPRFKH | < -0.25
GRIDVTRKRICRETKAPAHA | < -0.25
WGHWRLCQRPN | < -0.25
VLVTNVLRSWESAPAHVAEL | < -0.25
LLIVSCWDAAMYLEIAITCR | -0.25
ISRPHSTEVM | < -0.25
AGYHGWLV | < -0.25
NGVWGRGL | < -0.25
SLGP | < -0.25
FHRHLIKKFYR | < -0.25
LRSSSSQR | < -0.25
YVLLVSFRRRR | < -0.25
TEKRRSLN | < -0.25

Substance | growth estimate
GNAGGQPLGSPSFQVYGR | < -0.25
AFRALHQSTCEWRIDV | -0.2
LAEVPQNVAE | < -0.25
DNGLLKVMKQRYDGIIKKAR | < -0.25
RWRSYVGCHDSTRGLIKKSV | < -0.25
RDPVCWAK | < -0.25
HDI | < -0.25
LHGMRMRV | < -0.25
YTIDSFYFNHSDAWIDILFT | 0.0656
QKS | < -0.25
VSAPK | < -0.25
YAQMNGHAFFESEAFSLWTS | < -0.25
GGHRALWLRPAGPRRKIPPQ | < -0.25
GRPKQSSGF | -0.231
LWYASRA | < -0.25
CRPCMDKEVDCLSS | < -0.25
DCAP | < -0.25
APDSGVGLTTVRATAGGSFR | < -0.25
LMPLLSSFYCSFGRYDH | < -0.25
YVVASTFDRETGTDQSQRIL | < -0.25
YRKRGILRVEDC | < -0.25
GPRLRVEKWCRKGQRSCLIG | < -0.25
ACLELSPSSRMFPGPSWLER | < -0.25

Substance | growth estimate
QSFVVLRII | < -0.25
MEGCYIFGCDRLGGPAKPWW | -0.224
IFDRASRWMCTV | -0.243
LPIRRNLYGGNDTLSYQV | < -0.25
PKGWPLRPPSVALVCYSQN | < -0.25
RGRNVMVP | 0.117
VVRDLIGLRYPTTYRITRAA | < -0.25
PTLVSGHRKRACLIRATWP | < -0.25
EKASGTRVLKSRCIATGDLS | < -0.25
DKAQSPNYHDPIRWNPRPPA | < -0.25
LVTGYLSEGTGSR | < -0.25
VNTTGVSGGF | < -0.25
MPCPLTATTSTGLGTPTVAQ | < -0.25
RGLNLSSGIGCGDIDRWSLE | < -0.25
QVGRIEARLVFIHA | < -0.25
PRYLPDHIKEVNPVRGWFHR | < -0.25
FGETGWGALWGRVSSERGPR | < -0.25
KAFR | < -0.25
TVPNINLPSVLSRTFGIRLG | < -0.25
RTVLCIVNVYMTC | < -0.25
QDRHVLRRSG | < -0.25
EGTVLPD | < -0.25
FSRSE | < -0.25

Substance | growth estimate
QIRAFRQIMQPFPIAGRLVI | < -0.25
HCVGLGKA | < -0.25
QPIYGTALKPRT | < -0.25
AIVDRLR | < -0.25
SRACRVEG | < -0.25
LGGT | < -0.25
LGTHTRQGLLRTG | < -0.25
EGSKAEGHWLLFKQREGSTP | < -0.25
DSAN | < -0.25
GDLDQTWTINDWPGGVDLPG | < -0.25
MFN | -0.229
ERIMAKM | < -0.25
RQLGMHRPGLANPRCSSGEA | < -0.25
YVRLL | < -0.25
GLVRLWVPGAQPTVGW | < -0.25
RQMGPQYPGGKQHHGDLPPQ | < -0.25
TGVYLQLVSGDLVAGSLDGS | < -0.25
LGVCRTGAGDPQCVRASTCA | < -0.25
GEVRS | < -0.25
NYTSR | < -0.25
HDKKQAPSFGFVSFRVGIWV | < -0.25
IPGSPMIRKVGNIDPRFVTH | < -0.25
RHVAVLLTKTRQSF | < -0.25

Looked up one by one from the entries so far (two):
Substance | growth estimate
TGVYLQLVSGDLVAGSLDGS | < -0.25
GEVRS | < -0.25
